Source: paper PMC2905418, “High-affinity consensus binding of target RNAs by the STAR/GSG proteins GLD-1, STAR-2 and Quaking”

Legend:
STAR-2-STAR (C. elegans) = test: competition FP; conditions: probe C21A TGE; 10 mM Tris pH 8.0, 25 mM NaCl, 0.1 mM EDTA, 0.1 mg/mL tRNA, 5 ug/mL heparin, 0.01% IGEPAL CA630, room temperature, 3 h; EMSA gel 6% native, 0.5x TBE, 4 C; recombinant protein; protein details: N-terminal MBP fusion (pMal-c2x); label: unlabeled competitor
Qk-1-STAR (mouse) = molecular target: T1, Qk-1-STAR (mouse) (UniProt Q9QYS9); test: EMSA; conditions: 10 mM Tris pH 8.0, 25 mM NaCl, 0.1 mM EDTA, 0.1 mg/mL tRNA, 5 ug/mL heparin, 0.01% IGEPAL CA630, room temperature, 3 h; EMSA gel 6% native, 0.5x TBE, 4 C; recombinant protein; protein details: MBP fusion; label: 5' 32P
T1 sequence (looked up, limits assumed): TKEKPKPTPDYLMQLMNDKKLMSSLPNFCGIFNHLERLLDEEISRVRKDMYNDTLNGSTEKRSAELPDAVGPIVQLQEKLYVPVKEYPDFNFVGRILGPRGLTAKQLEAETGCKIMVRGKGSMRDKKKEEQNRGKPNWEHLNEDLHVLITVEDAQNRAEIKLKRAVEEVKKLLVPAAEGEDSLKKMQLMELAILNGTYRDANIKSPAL

| Sequence | binding result (STAR-2-STAR (C. elegans)) | Kd (Qk-1-STAR (mouse)) [nM] |
| --- | --- | --- |
| AUCUACUAAUAU [C21A (A21) half-site 12-mer] | binds | – |
| AUCUACUCAUAU [WT TGE half-site 12-mer (14-25; A21C in the A21 background)] | binds more weakly | – |
| GACACACUAACCUCGGUGGAAAGUGGAACAU [MBP:2-3'm1] | – | > 1000 |

Construct, isoform or probe ends are uncertain for at least one entry. For part of these data: Weaker means in comparison with the reference protein, sequence or condition of that experiment. For part of these data: Tags and fusion partners may be left off the protein sequences shown.
